Assay results reported in publication PMC6345817.
No constants are given. Whether binding was seen depends on the method and setting. Some binding calls cover weakened binding; strength is not graded here.

By UniProt entry, the sequences of proteins in these tests, tags left out. Residues count along the entry.
UniProt Q99523, residues 778-831: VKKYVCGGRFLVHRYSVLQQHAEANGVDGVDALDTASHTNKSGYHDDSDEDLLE
UniProt Q96PQ0, residues 1101-1159: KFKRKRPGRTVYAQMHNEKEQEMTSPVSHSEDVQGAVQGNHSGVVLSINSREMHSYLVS
UniProt Q9UJY4, residues 37-202: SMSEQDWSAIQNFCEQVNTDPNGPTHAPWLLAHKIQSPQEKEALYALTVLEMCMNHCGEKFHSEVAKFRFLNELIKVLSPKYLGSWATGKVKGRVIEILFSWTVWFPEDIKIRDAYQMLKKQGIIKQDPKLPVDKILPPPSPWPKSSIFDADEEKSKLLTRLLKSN

T1: MPR300 cytoplasmic domain K2328-I2491 (pB27 bait) (human (from the printed RefSeq entry)) (UniProt P11717)
T1 sequence: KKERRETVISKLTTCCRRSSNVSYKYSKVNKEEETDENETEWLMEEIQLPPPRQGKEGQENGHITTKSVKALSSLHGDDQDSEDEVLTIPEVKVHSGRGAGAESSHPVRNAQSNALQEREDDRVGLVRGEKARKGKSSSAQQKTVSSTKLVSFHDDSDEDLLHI

T2: SORCS1C cytoplasmic domain K1121-K1179 (pB27 bait) (human (from the printed RefSeq entry)) (UniProt Q8WY21)
T2 sequence: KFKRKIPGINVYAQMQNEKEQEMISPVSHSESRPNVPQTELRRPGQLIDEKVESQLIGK


Key:
[1] = target: Sortilin cytoplasmic domain V778–E831 (pB27 bait) (human (from the printed RefSeq entry)) (UniProt Q99523); assay: two-hybrid; pairwise test, data not shown
[2] = target: T1, MPR300 cytoplasmic domain K2328-I2491 (pB27 bait) (human (from the printed RefSeq entry)); assay: two-hybrid; pairwise test: pB27 (LexA) bait and pP6 prey plasmids; cells spotted on plates without Leu/Trp/His; 3-AT against bait auto-activation (10 or 15 mM for SorLA-cd, 20 mM for MPR46-cd); done three times
[3] = target: T2, SORCS1C cytoplasmic domain K1121-K1179 (pB27 bait) (human (from the printed RefSeq entry)); assay: as above
[4] = target: SORCS2 cytoplasmic domain K1101-S1159 (pB27 bait) (human (from the printed RefSeq entry)) (UniProt Q96PQ0); assay: as above

Row | binding [1] | binding [2] | binding [3] | binding [4] | Molecule
1 | binds |  |  |  | GGA2 fragment S37-N202 (pP6 prey clone, VHS domain) (from UniProt Q9UJY4 37-202) (domain or fragment)
2 |  | no binding | no binding | no binding | HSPA12A fragment T513-Y675 (pP6 prey clone identified by Hybrigenics) (domain or fragment, UniProt O43301 513-675) TILKGAVLFGLDPAVIKVRRSPLTYGVGVLNRYVEGKHPPEKLLVKDGTRWCTDVFDKFISADQSVALGELVKRSYTPAKPSQLVIVINIYSSEHDNVSFITDPGVKKCGTLRLDLTGTSGTAVPARREIQTLMQFGDTEIKATAIDIATSKSVKVGIDFLNY
